These are yes or no findings as the source states them, for the method shown. For part of these data: Binding seen in cells or lysates may run through a third protein. Some results given as binding are weak or reduced against the parent protein; the word gives no strength. For part of these data: Where a sequence is shown, tags or fusion partners need not be part of it. Values belong to the molecule of their own block, whether it stands above or below them.
Columns and labels:
[1] = biological target: T1, GFP-Rabin8 (human) (UniProt Q96QF0); experiment: co-IP; Rab8A KO HeLa cells co-transfected with GFP-Rabin8 and HA-Rab8A WT, S111E or S111A; whole-cell lysate (1 mg) immunoprecipitated with GFP binder sepharose resin, immunoblotted with anti-HA and anti-GFP
T1 sequence: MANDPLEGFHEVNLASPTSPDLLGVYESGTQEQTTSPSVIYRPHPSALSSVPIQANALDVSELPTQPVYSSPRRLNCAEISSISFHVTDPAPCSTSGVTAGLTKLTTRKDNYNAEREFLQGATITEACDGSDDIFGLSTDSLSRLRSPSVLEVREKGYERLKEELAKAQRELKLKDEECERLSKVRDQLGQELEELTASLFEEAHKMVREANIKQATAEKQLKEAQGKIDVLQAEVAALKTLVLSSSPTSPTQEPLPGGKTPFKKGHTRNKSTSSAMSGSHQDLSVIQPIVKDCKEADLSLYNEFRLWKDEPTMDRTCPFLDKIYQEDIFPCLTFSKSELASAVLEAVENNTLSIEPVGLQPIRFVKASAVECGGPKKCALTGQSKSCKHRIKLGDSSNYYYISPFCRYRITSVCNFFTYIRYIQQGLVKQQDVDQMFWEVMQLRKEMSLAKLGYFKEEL

By UniProt entry, the sequences of proteins in these tests, tags left out. Where a name states a change or a piece, a line headed by the entry shows the natural chain unless it says otherwise. Residues count along the entry.
UniProt Q01968, residues 539-901: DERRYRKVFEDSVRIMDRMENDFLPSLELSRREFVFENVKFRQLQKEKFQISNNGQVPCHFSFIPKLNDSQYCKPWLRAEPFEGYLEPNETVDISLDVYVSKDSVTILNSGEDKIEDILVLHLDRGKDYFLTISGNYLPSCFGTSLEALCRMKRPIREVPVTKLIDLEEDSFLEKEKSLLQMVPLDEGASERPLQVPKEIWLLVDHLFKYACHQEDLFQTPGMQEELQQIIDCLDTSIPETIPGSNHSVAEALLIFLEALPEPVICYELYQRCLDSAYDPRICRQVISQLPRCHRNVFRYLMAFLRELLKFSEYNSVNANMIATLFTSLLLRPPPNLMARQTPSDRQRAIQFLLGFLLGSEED
UniProt P61006: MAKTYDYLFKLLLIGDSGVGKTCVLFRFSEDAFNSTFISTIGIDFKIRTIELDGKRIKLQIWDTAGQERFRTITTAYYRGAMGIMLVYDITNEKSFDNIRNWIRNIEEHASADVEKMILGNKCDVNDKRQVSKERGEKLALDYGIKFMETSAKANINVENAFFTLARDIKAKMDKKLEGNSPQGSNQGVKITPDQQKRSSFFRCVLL

[2] = biological target: OCRL1(539-901) (UniProt Q01968); experiment: SEC; analytical gel filtration, Superdex 200 (10/30); OCRL1(539-901) 15 uM and Rab protein 19.5 uM (GppNHp-loaded) incubated 1 h in 70 ul; 20 mM HEPES pH 7.5, 50 mM NaCl, 2 mM DTE, 1 mM MgCl2, 1 uM GppNHp; detection at 254 nm; both purified
[3] = biological target: wild-type HA-Rab8A (human) (UniProt P61006); experiment: co-IP; HA-Rab8A WT, S111E or S111A transfected in Rab8A KO HeLa cells; whole-cell lysate (1 mg) immunoprecipitated with anti-HA agarose, immunoblotted with anti-Rabin8 (endogenous) and anti-HA
[4] = biological target: HA-Rab8A S111A (human) (UniProt P61006); experiment: as above

Molecule: Rab8A wild-type (recombinant) (from UniProt P61006 1-207)
- binding [2]: binds

B1: endogenous Rabin8 (protein, UniProt Q96QF0-2 1-460)
chain: T1 sequence
- binding [3]: binds
- binding [4]: binds

Continued, values first:

- binding [1]: binds
Molecule: HA-Rab8A S111A (from UniProt P61006 1-207)

- binding [2]: binds
Molecule: Rab8A S111E (recombinant) (from UniProt P61006 1-207)

- binding [1]: binds
Molecule: wild-type HA-Rab8A (from UniProt P61006 1-207)
